Values of other authors as cited in patent US20030100493A1, “Sublingual use of inhibitors in the biosynthesis of cholesterol” (priority 2001, published 2003).

Conditions: in vivo

- passage of the blood brain barrier: do not pass the blood brain barrier
Compound: CC(C)c1c(C(=O)Nc2ccccc2)c(-c2ccccc2)c(-c2ccc(F)cc2)n1CC[C@@H](O)C[C@@H](O)CC(=O)O [Atorvastatin]
